Measured values from the supplement of paper PMC12819154, “High-throughput peptide-centric local stability assay extends protein–ligand identification to membrane proteins, tissues and bacteria” (Nature Structural & Molecular Biology, 2025).
The list shows a part of the results. Small differences around the control level are noise.

Protein sequences, listed by entry. Tags and fused reporters are not part of them. Lines headed by an entry give the natural chain unless they say otherwise; changes in a name come on top.
UniProt Q8K019, whole entry: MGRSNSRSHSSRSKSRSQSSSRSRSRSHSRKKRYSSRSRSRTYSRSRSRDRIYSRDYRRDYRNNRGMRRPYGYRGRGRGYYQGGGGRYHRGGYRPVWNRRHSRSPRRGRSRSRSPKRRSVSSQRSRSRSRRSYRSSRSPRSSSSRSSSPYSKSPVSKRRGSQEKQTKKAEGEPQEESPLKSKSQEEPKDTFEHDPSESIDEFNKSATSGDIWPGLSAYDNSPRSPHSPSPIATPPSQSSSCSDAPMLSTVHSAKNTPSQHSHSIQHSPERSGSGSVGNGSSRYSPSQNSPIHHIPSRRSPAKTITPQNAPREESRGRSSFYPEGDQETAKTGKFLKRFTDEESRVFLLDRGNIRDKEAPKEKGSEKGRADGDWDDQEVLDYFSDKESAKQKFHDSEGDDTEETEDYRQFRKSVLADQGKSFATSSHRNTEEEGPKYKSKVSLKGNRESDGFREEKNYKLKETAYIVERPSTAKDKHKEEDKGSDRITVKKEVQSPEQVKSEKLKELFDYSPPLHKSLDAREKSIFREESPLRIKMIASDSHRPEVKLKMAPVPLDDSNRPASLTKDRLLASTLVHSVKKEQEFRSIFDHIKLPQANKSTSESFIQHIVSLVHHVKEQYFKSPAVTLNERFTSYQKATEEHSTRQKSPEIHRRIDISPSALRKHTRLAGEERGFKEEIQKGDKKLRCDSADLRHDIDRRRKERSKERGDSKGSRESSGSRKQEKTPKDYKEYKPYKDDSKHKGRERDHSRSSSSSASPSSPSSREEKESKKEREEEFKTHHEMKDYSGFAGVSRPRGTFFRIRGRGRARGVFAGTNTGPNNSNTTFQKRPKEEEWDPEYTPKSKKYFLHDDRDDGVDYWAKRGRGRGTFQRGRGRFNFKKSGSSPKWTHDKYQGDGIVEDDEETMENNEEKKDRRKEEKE
UniProt Q8K2C6: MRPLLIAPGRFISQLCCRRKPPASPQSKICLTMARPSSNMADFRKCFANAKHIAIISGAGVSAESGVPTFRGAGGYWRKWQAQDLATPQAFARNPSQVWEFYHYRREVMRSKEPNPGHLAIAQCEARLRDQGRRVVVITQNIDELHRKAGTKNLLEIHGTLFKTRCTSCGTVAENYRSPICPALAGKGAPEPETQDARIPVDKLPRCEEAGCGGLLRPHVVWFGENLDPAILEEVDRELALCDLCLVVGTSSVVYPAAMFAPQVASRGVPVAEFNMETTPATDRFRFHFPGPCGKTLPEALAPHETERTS
UniProt Q8K157: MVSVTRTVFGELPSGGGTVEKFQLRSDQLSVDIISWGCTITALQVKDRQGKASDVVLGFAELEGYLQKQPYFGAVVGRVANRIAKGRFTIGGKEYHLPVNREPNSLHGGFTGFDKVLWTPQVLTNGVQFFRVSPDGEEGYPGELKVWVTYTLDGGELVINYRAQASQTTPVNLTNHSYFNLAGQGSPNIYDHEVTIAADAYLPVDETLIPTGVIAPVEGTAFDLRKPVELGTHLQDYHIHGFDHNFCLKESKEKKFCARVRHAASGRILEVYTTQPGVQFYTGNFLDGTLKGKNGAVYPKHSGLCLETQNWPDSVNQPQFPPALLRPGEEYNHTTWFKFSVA
UniProt Q8R0F6: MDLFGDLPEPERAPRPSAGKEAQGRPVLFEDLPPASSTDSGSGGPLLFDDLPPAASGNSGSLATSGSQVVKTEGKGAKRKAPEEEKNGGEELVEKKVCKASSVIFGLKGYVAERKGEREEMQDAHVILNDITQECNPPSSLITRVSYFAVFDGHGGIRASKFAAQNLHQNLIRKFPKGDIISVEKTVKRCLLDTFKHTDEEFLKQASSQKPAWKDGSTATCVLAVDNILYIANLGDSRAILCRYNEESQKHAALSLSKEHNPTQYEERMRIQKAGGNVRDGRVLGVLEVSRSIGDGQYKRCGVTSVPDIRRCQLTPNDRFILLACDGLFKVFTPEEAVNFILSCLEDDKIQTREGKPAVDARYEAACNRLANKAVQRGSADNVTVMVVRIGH
UniProt Q8R3C1: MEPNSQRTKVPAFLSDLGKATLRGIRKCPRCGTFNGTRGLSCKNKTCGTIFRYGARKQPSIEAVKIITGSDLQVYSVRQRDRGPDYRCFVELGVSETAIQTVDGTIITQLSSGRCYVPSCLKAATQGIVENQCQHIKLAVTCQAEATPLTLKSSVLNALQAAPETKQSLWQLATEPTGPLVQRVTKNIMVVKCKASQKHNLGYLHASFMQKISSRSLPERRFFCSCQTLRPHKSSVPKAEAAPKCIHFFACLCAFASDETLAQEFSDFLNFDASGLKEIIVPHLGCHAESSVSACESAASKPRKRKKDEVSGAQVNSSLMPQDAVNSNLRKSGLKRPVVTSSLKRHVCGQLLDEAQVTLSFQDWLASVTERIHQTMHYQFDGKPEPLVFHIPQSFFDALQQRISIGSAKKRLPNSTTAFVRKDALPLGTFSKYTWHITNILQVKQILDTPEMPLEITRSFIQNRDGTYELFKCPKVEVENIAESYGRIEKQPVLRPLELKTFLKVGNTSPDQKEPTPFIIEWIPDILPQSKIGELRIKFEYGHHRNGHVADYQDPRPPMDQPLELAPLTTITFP
UniProt Q8VCA8: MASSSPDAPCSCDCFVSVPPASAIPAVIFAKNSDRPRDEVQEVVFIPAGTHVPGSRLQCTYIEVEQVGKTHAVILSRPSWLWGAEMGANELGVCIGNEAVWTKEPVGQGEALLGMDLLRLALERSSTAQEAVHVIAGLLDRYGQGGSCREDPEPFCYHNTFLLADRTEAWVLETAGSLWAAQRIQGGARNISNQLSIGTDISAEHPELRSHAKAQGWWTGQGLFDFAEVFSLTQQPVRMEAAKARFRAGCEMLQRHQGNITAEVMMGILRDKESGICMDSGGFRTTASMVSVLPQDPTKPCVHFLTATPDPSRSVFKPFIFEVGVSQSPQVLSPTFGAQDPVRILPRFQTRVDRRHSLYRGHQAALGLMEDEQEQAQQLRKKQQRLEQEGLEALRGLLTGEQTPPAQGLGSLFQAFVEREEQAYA
UniProt Q8R1I1: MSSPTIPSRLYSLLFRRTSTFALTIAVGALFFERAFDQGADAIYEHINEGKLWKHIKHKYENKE
UniProt Q8K135: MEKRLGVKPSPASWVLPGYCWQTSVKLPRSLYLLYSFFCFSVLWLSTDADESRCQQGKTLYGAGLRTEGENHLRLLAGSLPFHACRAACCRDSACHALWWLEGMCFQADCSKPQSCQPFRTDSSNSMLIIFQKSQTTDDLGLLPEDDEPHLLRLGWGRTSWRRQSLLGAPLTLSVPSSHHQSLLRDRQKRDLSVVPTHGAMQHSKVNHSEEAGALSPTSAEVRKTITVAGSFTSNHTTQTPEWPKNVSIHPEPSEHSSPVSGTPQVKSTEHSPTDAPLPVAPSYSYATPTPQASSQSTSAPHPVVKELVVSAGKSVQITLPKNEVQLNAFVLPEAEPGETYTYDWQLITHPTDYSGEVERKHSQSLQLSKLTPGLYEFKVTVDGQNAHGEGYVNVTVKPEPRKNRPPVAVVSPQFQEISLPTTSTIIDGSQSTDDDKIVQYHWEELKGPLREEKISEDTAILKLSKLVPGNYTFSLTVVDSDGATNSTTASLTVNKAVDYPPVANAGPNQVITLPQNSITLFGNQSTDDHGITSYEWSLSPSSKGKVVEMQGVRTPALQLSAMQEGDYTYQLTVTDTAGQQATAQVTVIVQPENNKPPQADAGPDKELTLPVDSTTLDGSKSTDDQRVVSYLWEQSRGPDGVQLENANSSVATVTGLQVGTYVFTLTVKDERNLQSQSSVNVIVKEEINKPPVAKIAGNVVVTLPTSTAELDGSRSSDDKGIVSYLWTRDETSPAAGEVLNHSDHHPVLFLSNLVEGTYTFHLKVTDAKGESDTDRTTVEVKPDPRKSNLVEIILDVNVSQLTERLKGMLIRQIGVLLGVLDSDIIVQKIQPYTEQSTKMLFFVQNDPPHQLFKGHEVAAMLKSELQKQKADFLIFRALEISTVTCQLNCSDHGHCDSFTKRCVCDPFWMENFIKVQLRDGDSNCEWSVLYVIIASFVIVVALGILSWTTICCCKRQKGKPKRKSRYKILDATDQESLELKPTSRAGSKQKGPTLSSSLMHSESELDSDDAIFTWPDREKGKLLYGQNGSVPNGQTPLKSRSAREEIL
UniProt Q8QZY1, whole entry: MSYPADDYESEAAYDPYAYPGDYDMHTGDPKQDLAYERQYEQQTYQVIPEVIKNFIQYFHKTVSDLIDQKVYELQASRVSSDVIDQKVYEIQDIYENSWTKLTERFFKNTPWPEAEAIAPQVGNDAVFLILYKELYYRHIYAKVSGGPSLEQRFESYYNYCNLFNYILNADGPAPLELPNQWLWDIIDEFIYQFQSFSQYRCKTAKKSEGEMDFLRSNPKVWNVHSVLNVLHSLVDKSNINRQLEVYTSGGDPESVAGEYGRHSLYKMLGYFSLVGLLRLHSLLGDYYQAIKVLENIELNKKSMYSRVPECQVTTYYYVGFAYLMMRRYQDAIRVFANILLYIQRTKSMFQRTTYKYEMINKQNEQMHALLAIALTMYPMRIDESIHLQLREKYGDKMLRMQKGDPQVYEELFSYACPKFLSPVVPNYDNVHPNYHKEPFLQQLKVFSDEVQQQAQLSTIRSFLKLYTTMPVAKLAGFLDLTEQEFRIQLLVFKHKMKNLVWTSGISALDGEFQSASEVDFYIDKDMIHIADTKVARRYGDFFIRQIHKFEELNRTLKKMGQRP
UniProt Q8R1K4: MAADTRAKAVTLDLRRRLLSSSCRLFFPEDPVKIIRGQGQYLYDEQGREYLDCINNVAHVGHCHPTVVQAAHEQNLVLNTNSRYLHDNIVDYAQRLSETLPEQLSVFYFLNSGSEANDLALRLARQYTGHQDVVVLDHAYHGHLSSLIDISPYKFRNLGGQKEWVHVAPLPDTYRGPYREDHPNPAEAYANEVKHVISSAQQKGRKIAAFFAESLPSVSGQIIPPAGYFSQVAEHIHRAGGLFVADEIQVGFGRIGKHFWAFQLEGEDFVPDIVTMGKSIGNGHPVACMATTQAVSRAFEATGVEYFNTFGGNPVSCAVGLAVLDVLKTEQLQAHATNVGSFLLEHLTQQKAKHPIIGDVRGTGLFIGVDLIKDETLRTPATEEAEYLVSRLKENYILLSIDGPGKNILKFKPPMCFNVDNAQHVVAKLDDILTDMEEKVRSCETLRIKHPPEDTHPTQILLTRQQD
UniProt Q8R1V4: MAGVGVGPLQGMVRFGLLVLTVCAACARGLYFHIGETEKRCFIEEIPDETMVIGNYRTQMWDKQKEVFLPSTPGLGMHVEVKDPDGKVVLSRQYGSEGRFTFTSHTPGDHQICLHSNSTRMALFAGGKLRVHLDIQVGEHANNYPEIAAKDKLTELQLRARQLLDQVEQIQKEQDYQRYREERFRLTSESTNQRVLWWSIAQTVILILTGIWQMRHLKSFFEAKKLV
UniProt Q8R344: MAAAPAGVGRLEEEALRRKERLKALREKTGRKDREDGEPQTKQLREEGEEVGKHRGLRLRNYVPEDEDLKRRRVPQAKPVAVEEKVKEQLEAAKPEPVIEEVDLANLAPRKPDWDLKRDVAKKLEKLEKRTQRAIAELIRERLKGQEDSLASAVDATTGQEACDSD
UniProt Q8K215: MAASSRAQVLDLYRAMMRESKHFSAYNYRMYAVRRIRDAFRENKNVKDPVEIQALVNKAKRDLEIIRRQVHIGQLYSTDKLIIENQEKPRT
UniProt Q8JZZ6: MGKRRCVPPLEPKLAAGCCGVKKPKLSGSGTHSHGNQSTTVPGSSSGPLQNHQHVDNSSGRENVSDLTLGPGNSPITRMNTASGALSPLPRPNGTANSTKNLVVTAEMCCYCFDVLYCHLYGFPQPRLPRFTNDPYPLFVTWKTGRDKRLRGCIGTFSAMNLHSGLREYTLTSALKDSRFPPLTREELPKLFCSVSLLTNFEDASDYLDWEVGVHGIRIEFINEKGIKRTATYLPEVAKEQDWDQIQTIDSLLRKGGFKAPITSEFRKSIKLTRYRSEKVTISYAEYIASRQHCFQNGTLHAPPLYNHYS
UniProt Q8K1E6: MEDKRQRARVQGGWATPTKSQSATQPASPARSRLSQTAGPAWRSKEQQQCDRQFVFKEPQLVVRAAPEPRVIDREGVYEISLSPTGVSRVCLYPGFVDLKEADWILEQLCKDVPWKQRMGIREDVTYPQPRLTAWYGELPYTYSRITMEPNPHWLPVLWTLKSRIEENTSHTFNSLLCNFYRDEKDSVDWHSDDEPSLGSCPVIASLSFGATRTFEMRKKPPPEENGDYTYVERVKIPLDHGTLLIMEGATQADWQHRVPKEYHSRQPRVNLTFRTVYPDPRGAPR
UniProt Q8R570: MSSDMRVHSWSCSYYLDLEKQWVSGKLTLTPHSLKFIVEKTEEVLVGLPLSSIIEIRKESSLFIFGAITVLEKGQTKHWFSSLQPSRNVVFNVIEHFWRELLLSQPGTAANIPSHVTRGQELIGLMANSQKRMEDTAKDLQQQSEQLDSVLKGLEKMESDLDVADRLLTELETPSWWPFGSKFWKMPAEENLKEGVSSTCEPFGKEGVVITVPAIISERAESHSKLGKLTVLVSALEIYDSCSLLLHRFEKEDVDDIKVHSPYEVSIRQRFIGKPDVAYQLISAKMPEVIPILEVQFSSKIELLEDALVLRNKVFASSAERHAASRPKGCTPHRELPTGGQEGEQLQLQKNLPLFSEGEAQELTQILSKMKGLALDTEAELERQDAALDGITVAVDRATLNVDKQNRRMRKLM

Compound: CN[C@@H]1C[C@H]2O[C@@](C)([C@@H]1OC)n1c3ccccc3c3c4c(c5c6ccccc6n2c5c31)C(=O)NC4 [staurosporine]
Assay: log2 fold change of pooled soluble protein (PISA), ligand vs vehicle (log2 ratio); higher = more thermally stabilized
Details: ligand concentration: 20 uM; assay format: PISA pool 52.9/55.5/58.6 C

Target | log2 fold change of pooled soluble protein
UniProt Q8K268 | -0.34
UniProt Q8R4H7 | 0.184
UniProt Q8K440 | 0.0416
UniProt Q8VC30 | 0.0532
UniProt Q8K3J1 | -0.141
UniProt Q8VCC2 | -0.0371
UniProt Q8K212 | 0.0153
UniProt Q8K4F5 | -0.015
UniProt Q8QZY6 | 0.277
UniProt Q8VCB3 | 0.00688
UniProt Q8CI75 | -0.132
UniProt Q8CHG3 | 0.000137
UniProt Q8K4H1 | -0.225
UniProt Q8CH25 | -0.0306
UniProt Q8K019 | -0.0572
UniProt Q8K3H0 | -0.0531
UniProt Q8K2C6 | -0.173
UniProt Q8R0Z5 | 0.181
UniProt Q8CHK3 | -0.19
UniProt Q8VCM4 | -0.168
UniProt Q8K0E8 | 0.0694
UniProt Q8JZK9 | 0.125
UniProt Q8K4G5 | -0.0767
UniProt Q8K010 | -0.0557
UniProt Q8K157 | -0.451

Target | log2 fold change of pooled soluble protein
UniProt Q8R0F6 | -0.147
UniProt Q8R3C1 | 0.0569
UniProt Q8VCA8 | 0.12
UniProt Q8VC03 | 0.0513
UniProt Q8R1I1 | -0.00551
UniProt Q8K135 | -0.165
UniProt Q8R1B4 | -0.0742
UniProt Q8R1G2 | -0.0559
UniProt Q8CIE0 | -0.0255
UniProt Q8QZY1 | -0.108
UniProt Q8CH18 | -0.0377
UniProt Q8K201 | -0.101
UniProt Q8R1K4 | 0.0812
UniProt Q8K1N2 | -0.0476
UniProt Q8CGF1 | 0.147
UniProt Q8JZU2 | -0.211
UniProt Q8K0C9 | -0.179
UniProt Q8R121 | 0.123
UniProt Q8R1V4 | -0.0486
UniProt Q8VCM5 | -0.0414
UniProt Q8CIH9 | -0.0468
UniProt Q8VBW6 | -0.147
UniProt Q8R344 | -0.0352
UniProt Q8R0J8 | -0.467
UniProt Q8K215 | -0.173

Target | log2 fold change of pooled soluble protein
UniProt Q8K3C3 | -0.126
UniProt Q8K1N4 | -0.11
UniProt Q8R5F7 | -0.124
UniProt Q8JZZ6 | -0.0287
UniProt Q8R015 | -0.0286
UniProt Q8JZZ7 | -0.248
UniProt Q8K1X1 | -0.0244
UniProt Q8R4X3 | 0.527
UniProt Q8R4V5 | 0.103
UniProt Q8K310 | -0.00429
UniProt Q8CGZ0 | 0.253
UniProt Q8K296 | -0.174
UniProt Q8K1H1 | 0.129
UniProt Q8CIF4 | 0.00298
UniProt Q8K1E6 | 0.101
UniProt Q8K0P3 | -0.157
UniProt Q8R570 | -0.175
UniProt Q8R3Q0 | -0.0227
UniProt Q8K4K6 | 0.289
UniProt Q8R5H6 | -0.0553
UniProt Q8K2I1 | 0.213
UniProt Q8VC60 | -0.211
UniProt Q8CIB5 | -0.06
UniProt Q8K2Q7 | -0.0298

3 neighbouring entries from above, quoted:
Target | log2 fold change of pooled soluble protein
UniProt Q8K1X1 | -0.0244
UniProt Q8R4X3 | 0.527
UniProt Q8R4V5 | 0.103
